Source: PubChem BioAssay AID504784 (Drosophila RNAi Screening Center, 2011)
Aim: 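Genome-wide knock-down for genes giving too much or too little stored lipid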 (primary screen). Cell system: Drosophila Kc167 embryonic cells. Reagent: long dsRNA against Drosophila genes, about 250 ng dsRNA per well. Time to read-out: 4 days. Conditions: cells fed 400 µM oleic acid bound to BSA. Detection: 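Microscope images give a droplet-to-nucleus area ratio, taken as log and converted to a screen-wide B-score; higher values mean greater lipid storage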. Direction: droplet/nuclear area B-score: higher = more stored lipid (overstorage).
The deposit covers about 17,000 reagents; shown is an unselected part of those that have a named target and a result. 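Each column is one replicate's B-score; the combined score over replicates was not deposited, so single values may mislead.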 A plus sign joins genes that one reagent is predicted to hit. Further read-outs or replicates are left out here.

no.	target	amplicon	droplet/nuclear area B-score, replicate 1
1	Dek	DRSC07418	-1.37
2	Gr98c (Gustatory receptor 98c)	DRSC22212	-1.19
3	CG31041	DRSC13951	0.0895
4	Ac78C (Adenylyl cyclase 78C)	DRSC11467	3.76
5	Ac78C (Adenylyl cyclase 78C)	DRSC11602	1.59
6	Ac78C (Adenylyl cyclase 78C)	DRSC11619	1.79
7	CG9368	DRSC11067	-0.178
8	Dnaaf4 (Dynein axonemal assembly factor 4)	DRSC02405	1.67
9	Smn (survival motor neuron)	DRSC10223	0.762
10	RunxB (Runt related B)	DRSC20395	1.63
11	RunxB (Runt related B)	DRSC20525	0.611
12	RunxB (Runt related B)	DRSC20526	-3.08
13	RunxB (Runt related B)	DRSC23150	0.773
14	gbb (glass bottom boat)	DRSC04687	-2.49
15	CG31139	DRSC21393	0.00998
16	CG17290	DRSC06662	-1.97
17	Hr3 (Hormone receptor 3)	DRSC06118	0.649
18	Hr3 (Hormone receptor 3)	DRSC07441	-1.47
19	FBXO11 (F-box protein 11)	DRSC16497	0.204
20	CG42816 + CG42815	DRSC11230	-0.0653
21	CG13928	DRSC08397	0.24
22	E(spl)m7-HLH (Enhancer of split m7, helix-loop-helix)	DRSC16696	-0.738
23	dco (discs overgrown)	DRSC16929	1.05
24	SkpC (SKP1-related C)	DRSC20375	0.676
25	DNAlig1 (DNA ligase 1)	DRSC04518	3.43
26	OtopLa (Otopetrin-like a)	DRSC17787	-0.672
27	OtopLa (Otopetrin-like a)	DRSC18133	-1.13
28	OtopLa (Otopetrin-like a)	DRSC23226	-0.363
29	bru1 (bruno 1)	DRSC01234	-3.08
30	bru1 (bruno 1)	DRSC01236	-0.406
31	bru1 (bruno 1)	DRSC01237	0.8
32	bru1 (bruno 1)	DRSC01238	-3.35
33	bru1 (bruno 1)	DRSC03485	-2.87
34	Ugt36A1 (UDP-glycosyltransferase family 36 member A1)	DRSC00748	0.0194
35	CG31638	DRSC02269	0.254
36	CG31638	DRSC03259	-0.0493
37	Ac3 (Adenylate cyclase 3)	DRSC03692	0.611
38	Or82a (Odorant receptor 82a)	DRSC11996	-2.83
39	CG30109	DRSC05675	1.64
40	PGRP-SC1a (Peptidoglycan recognition protein SC1a)	DRSC06482	-0.132
41	CG30015	DRSC05241	3.22
42	CG30015	DRSC07027	0.016
43	CG30015	DRSC07028	0.742
44	CG2898	DRSC18238	-0.0471
45	Ciz1 (Ciz1 zinc finger protein)	DRSC09675	0.318
46	Vps15 (Vacuolar protein sorting 15)	DRSC16553	-0.165
47	Tmf (TATA element modulatory factor)	DRSC18368	-0.856
48	spn-E (spindle E)	DRSC17064	1.74
49	Dhit (Double hit)	DRSC07411	-1.32
50	nrv3 (nervana 3)	DRSC03097	-1.61
51	Ptpmeg (Protein tyrosine phosphatase Meg)	DRSC08684	1.14
52	e (ebony)	DRSC16936	2.75
53	zetaTry (zetaTrypsin)	DRSC07720	0.0586
54	CG14787	DRSC18606	-1.27
55	CG2685	DRSC18463	2.74
56	KP78b + KP78a	DRSC23338	0.675
57	KP78b + KP78a	DRSC23341	-0.693
